Results from article doi:10.1101/2020.11.12.379867.
Results are given in words; binding and its absence hold for the method and conditions named. In cells and extracts the contact can be indirect. Binding can be weak; no strength is given. Where a sequence is shown, tags or fusion partners need not be part of it.

Target: GST-STG^9A (GST-fused C-terminus of STG mimicking the unphosphorylated form)
Assay: pull-down

B1: flag-tagged μ3 subunit of the adaptor protein AP-3 (μ3A) (protein, UniProt Q9JKC8 1-418)
chain: MIHSLFLINCSGDIFLEKHWKSVVSQSVCDYFFEAQEKAADVENVPPVISTPHHYLISIYRDKLFFVSVIQTEVPPLFVIEFLHRVADTFQDYFGECSEAAIKDNVVIVYELLEEMLDNGFPLATESNILKELIKPPTILRSVVNSITGSSNVGDTLPTGQLSNIPWRRAGVKYTNNEAYFDVVEEIDAIIDKSGSTVFAEIQGVIDACIKLSGMPDLSLSFMNPRLLDDVSFHPCIRFKRWESERVLSFIPPDGNFRLISYRVSSQNLVAIPVYVKHSISFKENSSCGRFDITIGPKQNMGKTIEGITVTVHMPKVVLNMNLTPTQGSYTFDPVTKVLAWDVGKITPQKLPSLKGLVNLQSGAPKPEENPNLNIQFKIQQLAISGLKVNRLDMYGEKYKPFKGVKYVTKAGKFQVRT
binding: binds
